Assay results: publication doi:10.1101/2020.03.29.015024
No constants are given. Whether binding was seen depends on the method and setting. In cells and extracts the contact can be indirect. Some results given as binding are weak or reduced against the parent protein; the word gives no strength. Where a sequence is shown, tags or fusion partners need not be part of it.

Protein sequences, listed by entry. Tags and fused reporters are not part of them.
UniProt P62631: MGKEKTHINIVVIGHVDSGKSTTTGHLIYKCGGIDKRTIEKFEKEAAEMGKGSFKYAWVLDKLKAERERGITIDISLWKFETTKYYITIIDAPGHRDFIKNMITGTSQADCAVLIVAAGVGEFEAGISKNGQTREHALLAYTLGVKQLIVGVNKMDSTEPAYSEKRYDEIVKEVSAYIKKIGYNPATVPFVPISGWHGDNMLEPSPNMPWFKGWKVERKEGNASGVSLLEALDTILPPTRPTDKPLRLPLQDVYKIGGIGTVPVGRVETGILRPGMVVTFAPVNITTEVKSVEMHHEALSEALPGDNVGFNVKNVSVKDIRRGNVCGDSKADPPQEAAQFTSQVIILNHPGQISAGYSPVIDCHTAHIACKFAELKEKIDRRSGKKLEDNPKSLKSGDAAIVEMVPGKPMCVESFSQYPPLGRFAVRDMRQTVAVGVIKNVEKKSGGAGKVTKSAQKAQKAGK
UniProt Q9JMB7: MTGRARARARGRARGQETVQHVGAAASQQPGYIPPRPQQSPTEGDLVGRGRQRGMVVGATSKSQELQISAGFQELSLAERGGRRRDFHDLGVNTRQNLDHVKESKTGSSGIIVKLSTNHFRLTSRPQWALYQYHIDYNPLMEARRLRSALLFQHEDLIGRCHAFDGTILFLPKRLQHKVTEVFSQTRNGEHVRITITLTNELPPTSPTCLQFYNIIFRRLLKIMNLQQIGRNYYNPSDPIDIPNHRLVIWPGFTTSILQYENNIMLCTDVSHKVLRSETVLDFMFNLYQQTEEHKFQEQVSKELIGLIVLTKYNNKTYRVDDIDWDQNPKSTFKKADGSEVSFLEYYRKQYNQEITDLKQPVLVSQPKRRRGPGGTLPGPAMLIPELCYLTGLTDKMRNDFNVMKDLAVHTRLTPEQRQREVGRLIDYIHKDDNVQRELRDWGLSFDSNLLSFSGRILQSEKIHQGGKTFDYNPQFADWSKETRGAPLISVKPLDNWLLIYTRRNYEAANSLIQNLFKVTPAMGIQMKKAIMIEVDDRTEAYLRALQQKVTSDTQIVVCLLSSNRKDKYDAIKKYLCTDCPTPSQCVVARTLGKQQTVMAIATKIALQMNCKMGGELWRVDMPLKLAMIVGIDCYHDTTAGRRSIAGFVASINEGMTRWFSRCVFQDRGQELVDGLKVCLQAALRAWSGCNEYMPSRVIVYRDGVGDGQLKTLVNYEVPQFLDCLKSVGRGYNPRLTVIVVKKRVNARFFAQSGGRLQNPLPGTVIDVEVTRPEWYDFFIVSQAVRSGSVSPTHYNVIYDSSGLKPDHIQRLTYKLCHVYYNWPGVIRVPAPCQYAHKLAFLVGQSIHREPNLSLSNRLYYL
UniProt P10126: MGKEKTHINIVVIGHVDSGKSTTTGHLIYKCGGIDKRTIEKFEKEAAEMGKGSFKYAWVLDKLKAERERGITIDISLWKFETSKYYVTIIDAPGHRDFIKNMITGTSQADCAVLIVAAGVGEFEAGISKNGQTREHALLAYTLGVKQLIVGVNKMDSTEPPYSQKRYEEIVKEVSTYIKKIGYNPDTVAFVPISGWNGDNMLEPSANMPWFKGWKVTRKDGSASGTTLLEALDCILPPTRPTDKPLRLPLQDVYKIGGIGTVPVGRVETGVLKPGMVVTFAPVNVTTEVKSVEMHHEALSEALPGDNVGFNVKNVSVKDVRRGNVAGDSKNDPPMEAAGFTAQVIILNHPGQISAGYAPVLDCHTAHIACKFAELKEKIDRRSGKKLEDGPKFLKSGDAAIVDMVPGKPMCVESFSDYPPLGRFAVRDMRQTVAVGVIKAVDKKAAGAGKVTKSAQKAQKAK
UniProt Q9Z2C8: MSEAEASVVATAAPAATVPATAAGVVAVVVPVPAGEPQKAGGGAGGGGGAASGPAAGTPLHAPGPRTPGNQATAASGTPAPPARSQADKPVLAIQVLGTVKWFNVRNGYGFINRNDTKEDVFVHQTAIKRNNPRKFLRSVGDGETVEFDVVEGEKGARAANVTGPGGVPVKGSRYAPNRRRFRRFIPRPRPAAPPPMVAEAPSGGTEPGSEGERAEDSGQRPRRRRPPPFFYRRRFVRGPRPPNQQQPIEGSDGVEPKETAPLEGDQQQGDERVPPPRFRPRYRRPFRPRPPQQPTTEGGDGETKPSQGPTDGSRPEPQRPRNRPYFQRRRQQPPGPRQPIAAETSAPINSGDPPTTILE

Columns and labels:
Test in all cases: co-IP
[1] = molecular target: T1, DDX4 (mouse (endogenous in testis)) (UniProt Q61496)
T1 sequence: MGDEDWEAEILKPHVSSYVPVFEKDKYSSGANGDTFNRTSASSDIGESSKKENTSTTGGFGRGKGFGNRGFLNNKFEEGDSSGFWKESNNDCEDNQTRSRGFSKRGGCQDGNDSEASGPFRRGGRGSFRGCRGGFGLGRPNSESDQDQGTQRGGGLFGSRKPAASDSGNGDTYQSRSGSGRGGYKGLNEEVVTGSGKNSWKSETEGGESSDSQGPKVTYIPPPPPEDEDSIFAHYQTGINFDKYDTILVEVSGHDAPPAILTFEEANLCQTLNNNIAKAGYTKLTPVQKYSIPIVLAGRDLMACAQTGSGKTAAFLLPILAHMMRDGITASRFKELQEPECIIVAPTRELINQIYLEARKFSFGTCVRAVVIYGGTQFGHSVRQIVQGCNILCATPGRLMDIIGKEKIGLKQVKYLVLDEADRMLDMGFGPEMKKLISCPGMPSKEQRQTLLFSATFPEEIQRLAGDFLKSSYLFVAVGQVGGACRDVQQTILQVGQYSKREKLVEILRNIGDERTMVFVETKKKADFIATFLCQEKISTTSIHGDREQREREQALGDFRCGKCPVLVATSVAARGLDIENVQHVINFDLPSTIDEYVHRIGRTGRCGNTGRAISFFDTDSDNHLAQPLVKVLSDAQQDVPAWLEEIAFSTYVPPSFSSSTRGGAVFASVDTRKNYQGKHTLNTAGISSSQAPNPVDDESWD

[2] = molecular target: eukaryotic elongation factor 1 alpha 2 (eEF1A2) (mouse (endogenous in testis)) (UniProt P62631)
[3] = molecular target: MIWI (mouse (endogenous in testis)) (UniProt Q9JMB7)
[4] = molecular target: T2, GASZ (mouse (endogenous in testis)) (UniProt Q8VD46)
T2 sequence: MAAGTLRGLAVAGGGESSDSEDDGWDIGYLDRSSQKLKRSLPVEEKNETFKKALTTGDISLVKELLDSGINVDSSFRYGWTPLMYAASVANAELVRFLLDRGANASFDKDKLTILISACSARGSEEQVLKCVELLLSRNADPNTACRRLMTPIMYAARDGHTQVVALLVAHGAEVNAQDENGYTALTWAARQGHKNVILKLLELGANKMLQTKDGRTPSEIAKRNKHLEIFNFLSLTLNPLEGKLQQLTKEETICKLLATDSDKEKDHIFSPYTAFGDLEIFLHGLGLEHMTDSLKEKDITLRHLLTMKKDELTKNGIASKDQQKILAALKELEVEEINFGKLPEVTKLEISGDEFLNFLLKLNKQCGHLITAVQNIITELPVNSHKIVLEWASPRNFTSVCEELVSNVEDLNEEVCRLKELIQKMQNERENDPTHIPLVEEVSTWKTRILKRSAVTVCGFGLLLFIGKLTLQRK

[5] = molecular target: T3, Mitofusin 1 (MFN1) (mouse (endogenous in testis)) (UniProt Q811U4)
T3 sequence: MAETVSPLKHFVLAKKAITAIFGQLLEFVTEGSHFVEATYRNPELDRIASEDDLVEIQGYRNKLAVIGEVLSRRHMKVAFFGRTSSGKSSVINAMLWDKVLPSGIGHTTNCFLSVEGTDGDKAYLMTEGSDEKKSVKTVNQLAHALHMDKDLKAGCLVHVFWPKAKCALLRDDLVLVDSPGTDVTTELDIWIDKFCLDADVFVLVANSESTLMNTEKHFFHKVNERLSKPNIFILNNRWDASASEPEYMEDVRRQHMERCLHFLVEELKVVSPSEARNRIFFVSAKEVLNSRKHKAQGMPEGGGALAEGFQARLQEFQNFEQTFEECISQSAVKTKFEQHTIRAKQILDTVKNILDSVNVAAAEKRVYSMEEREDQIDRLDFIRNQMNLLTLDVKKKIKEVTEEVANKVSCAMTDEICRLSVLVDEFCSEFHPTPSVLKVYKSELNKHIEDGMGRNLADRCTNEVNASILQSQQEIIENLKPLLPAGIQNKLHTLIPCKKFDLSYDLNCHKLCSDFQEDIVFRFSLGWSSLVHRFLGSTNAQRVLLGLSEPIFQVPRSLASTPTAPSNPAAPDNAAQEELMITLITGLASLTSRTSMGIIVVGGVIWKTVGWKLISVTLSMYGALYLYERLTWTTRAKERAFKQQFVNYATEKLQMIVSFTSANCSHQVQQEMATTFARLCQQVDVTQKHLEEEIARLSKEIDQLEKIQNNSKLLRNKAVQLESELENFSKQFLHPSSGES

[6] = molecular target: eukaryotic elongation factor 1 alpha 1 (eEF1A1) (mouse (endogenous in testis)) (UniProt P10126)
[7] = molecular target: T4, TDRKH (mouse (endogenous in testis)) (UniProt Q80VL1)
T4 sequence: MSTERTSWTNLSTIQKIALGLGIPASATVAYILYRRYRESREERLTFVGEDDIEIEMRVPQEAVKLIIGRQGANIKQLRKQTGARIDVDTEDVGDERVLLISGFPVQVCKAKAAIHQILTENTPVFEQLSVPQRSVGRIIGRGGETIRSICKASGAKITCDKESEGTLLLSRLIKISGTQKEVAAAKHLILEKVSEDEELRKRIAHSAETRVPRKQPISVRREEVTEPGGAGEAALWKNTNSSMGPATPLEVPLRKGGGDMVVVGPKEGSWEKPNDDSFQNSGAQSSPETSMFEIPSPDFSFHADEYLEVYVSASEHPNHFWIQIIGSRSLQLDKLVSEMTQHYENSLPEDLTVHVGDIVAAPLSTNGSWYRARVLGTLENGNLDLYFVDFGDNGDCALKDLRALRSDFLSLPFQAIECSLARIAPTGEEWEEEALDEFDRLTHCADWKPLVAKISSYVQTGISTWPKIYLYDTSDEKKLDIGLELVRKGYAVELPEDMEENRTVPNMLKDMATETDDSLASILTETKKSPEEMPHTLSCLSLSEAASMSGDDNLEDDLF

[8] = molecular target: MSY2 (mouse (endogenous in testis)) (UniProt Q9Z2C8)

Measured: binding

B1: Mitofusin 2 (MFN2) (protein, UniProt Q80U63 1-757)
chain: MSLLFSRCNSIVTVKKDKRHMAEVNASPLKHFVTAKKKINGIFEQLGAYIQESASFLEDTHRNTELDPVTTEEQVLDVKGYLSKVRGISEVLARRHMKVAFFGRTSNGKSTVINAMLWDKVLPSGIGHTTNCFLRVGGTDGHEAFLLTEGSEEKKSVKTVNQLAHALHQDEQLHAGSMVSVMWPNSKCPLLKDDLVLMDSPGIDVTTELDSWIDKFCLDADVFVLVANSESTLMQTEKQFFHKVSERLSRPNIFILNNRWDASASEPEYMEEVRRQHMERCTSFLVDELGVVDRAQAGDRIFFVSAKEVLSARVQKAQGMPEGGGALAEGFQVRMFEFQNFERQFEECISQSAVKTKFEQHTVRAKQIAEAVRLIMDSLHIAAQEQRVYCLEMREERQDRLRFIDKQLELLAQDYKLRIKQITEEVERQVSTAMAEEIRRLSVLVDEYQMDFHPSPVVLKVYKNELHRHIEEGLGRNLSDRCSTAIASSLQTMQQDMIDGLKPLLPVSMRNQIDMLVPRQCFSLSYDLNCDKLCADFQEDIEFHFSLGWTMLVNRFLGPKNSRRALLGYSDQVQRPLPLTPANPSMPPLPQSSLTQEELMVSMVTGLASLTSRTSMGILVVGGVVWKAVGWRLIALSFGLYGLLYVYERLTWTTKAKERAFKRQFVEYASEKLQLIISYTGSNCSHQVQQELSGTFAHLCQQVDITRDNLEQEIAAMNKKVEALDSLQSRAKLLRNKAGWLDSELNMFTHQYLQPSR
binds: all assays above
